Source: PubChem BioAssay (NCATS)
This list was built around the results that the source calls inconclusive (neither active nor inactive); the mix of calls is not that of the screen. For part of these data: A potency beside an inconclusive call is a rough fit, not a confirmed value. Activity calls are given as the source filed them. Unless noted, calls come from the whole dose curve; as a rule, active = well fitted curve in the direction sought with a large enough effect; inconclusive = small, poorly fitted or top-dose-only effect, or another doubt; inactive = no such curve, though single readings can be large; an effect the other way counts as inactive or inconclusive.

The chains behind the UniProt entries cited, without tags or fusion partners. Where a name states a change or a piece, a line headed by the entry shows the natural chain unless it says otherwise.
UniProt P07203, whole entry, looked up: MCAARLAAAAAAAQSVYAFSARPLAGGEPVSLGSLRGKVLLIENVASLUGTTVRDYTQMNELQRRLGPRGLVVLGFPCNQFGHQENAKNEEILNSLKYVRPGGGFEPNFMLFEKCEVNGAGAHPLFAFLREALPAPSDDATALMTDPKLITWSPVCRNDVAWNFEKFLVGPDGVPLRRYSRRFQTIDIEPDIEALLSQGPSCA
UniProt P10635, whole entry, looked up: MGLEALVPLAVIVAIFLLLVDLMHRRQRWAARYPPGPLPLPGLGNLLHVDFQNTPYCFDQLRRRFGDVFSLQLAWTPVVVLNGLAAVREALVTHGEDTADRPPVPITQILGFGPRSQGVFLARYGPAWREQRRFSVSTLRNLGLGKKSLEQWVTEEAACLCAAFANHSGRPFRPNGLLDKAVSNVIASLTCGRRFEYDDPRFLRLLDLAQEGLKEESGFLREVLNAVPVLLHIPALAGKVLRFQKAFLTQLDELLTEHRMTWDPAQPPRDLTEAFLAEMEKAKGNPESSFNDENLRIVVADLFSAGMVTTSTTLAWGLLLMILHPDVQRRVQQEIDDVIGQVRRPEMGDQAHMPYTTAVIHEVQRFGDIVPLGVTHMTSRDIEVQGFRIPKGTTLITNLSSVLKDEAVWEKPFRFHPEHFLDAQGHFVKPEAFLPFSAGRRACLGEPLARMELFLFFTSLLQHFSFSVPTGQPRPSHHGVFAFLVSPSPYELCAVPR
UniProt P11712, whole entry, looked up: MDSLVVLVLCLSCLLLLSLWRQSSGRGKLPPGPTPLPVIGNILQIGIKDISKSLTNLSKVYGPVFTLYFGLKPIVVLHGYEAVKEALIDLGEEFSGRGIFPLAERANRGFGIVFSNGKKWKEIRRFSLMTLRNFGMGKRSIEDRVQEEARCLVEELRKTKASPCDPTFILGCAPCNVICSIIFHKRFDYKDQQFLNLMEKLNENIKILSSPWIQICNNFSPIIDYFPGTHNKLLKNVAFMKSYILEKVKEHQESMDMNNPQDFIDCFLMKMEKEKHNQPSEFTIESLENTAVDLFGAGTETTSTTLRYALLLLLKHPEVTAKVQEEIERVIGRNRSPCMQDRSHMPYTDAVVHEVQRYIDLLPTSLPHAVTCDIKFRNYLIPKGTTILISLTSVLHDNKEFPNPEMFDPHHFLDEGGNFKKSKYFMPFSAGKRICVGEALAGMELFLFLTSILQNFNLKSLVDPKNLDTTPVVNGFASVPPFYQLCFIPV
UniProt O94782: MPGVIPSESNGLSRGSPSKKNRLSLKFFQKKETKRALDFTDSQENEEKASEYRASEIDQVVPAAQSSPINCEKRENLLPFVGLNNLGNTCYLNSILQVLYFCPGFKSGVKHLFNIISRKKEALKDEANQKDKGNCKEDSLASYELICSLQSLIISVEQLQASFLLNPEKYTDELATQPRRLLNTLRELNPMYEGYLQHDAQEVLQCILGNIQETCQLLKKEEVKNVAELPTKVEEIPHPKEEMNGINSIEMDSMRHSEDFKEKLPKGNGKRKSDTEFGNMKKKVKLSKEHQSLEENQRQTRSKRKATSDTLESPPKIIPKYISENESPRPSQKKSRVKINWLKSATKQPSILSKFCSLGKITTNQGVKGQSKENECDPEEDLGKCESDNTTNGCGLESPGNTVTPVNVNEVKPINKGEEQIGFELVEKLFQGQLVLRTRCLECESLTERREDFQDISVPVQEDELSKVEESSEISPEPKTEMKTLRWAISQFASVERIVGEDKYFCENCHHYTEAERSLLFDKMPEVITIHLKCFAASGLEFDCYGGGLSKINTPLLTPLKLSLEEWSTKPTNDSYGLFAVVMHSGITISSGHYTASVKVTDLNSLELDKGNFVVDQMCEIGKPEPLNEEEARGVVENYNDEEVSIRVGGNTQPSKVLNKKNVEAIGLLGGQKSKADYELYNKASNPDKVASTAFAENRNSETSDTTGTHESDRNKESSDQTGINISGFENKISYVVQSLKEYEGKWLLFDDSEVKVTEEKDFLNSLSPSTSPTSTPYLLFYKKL

Key:
[1] = qHTS of pediatric cancer cell lines to identify multiple opportunities for drug repurposing: Confirmatory screen for SK-N-MC cells (AID 1347111);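 note: potency is the fitted concentration of half-maximal effect; cells exposed to compound for 48 h before the readout; nearly all actives have a fitted effect of over 70% in size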
Outline: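 Seed 500-1,000 cells/well; rest 5 h at 37 degrees C. Pin-transfer compounds, 11-point titration. Incubate 48 h. Add CellTiter-Glo, 15 min RT, read luminescence.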

[2] = qHTS of pediatric cancer cell lines to identify multiple opportunities for drug repurposing: Confirmatory screen for TC32 cells (AID 1347118);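 note: potency is the fitted concentration of half-maximal effect; cells exposed to compound for 48 h before the read; nearly all actives have a fitted effect of over 65% in size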
Outline: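 TC32 cells, 500-1,000/well in growth medium, compound-treated 48 h at 37 °C; viability from CellTiter-Glo luminescence. Primary screen: MIPE 11-point (0.78 nM–46 µM final), NPC 8-point (0.59 nM–46 µM final); confirmatory at 11-point dilutions.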

[3] = molecular target: Glutathione peroxidase 1 (Homo sapiens) (UniProt P07203); assay: Primary qHTS Assay for Inhibitors of Recombinant Selenoprotein Glutathione Peroxidase 1 (GPX1) (AID 1845191); details: activity, negative = inhibition: at 48.8 µM (top of the series); note: nearly all actives have a fitted effect of over 65% in size; note: potency is the fitted concentration of half-maximal effect; for activity, negative = inhibition: % is set by controls: 0 for no effect and ±100 for the full control effect
Outline: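 10 nM GPX1 + cpd, 30 min RT; start w/ 1 mM GSH, 0.5 mM cumene hydroperoxide, 0.5 mM NADPH, 100 nM GR, 0.01% BSA; buffer 50 mM Tris-HCl pH 7.5, 2 mM EDTA, 150 mM NaCl; Fl 340/450, 0 & 15 min.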

[4] = Primary fluorescence-based thiol-reactive (MSTI) qHTS assay for identification of artifact compounds. (AID 1845221); note: nearly all actives have a fitted effect of over 65% in size; note: potency is the fitted concentration of half-maximal effect
Outline: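 qHTS titration of compound; 4 uM MSTI, PBS pH 7.4, 2% DMSO; 1 h RT, dark; fluorescence 525/598 nm; normalized to Acetyl-MSTI and MSTI; 4-parameter Hill fit.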

[5] = Primary redox qHTS assay for identification of artifact compounds. (AID 1845223); note: potency is the fitted concentration of half-maximal effect
Outline: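 Amplex Red (25 uM) and HRP (250 mU/mL) in HBSS, with compounds for 15 min, then 250 uM DTT for 30 min, room temperature, dark. Fluorescence 525/598 nm read; normalized to DMSO and 10 uM DA3003; Hill fit.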

[6] = Quantitative High-Throughput drug screen in 47 multiple myeloma cell lines against the NCATS MIPE library collection: FR4_PLB cell viability assay (AID 1918924; note: potency is the fitted concentration of half-maximal effect; nearly all actives have a fitted effect of over 35% in size)
Outline: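 Primary qHTS used for cherry-picking: cells at 500/well, library compounds for 48 h (37C, 5% CO2), luminescent ATP assay.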

[7] = qHTS of pediatric cancer cell lines to identify multiple opportunities for drug repurposing: Confirmatory screen for Rh41 cells (AID 1347123); note: potency is the fitted concentration of half-maximal effect; nearly all actives have a fitted effect of over 60% in size
Outline: (§1)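 Cells (500-1,000/well) rested 5 h, then received compounds for 48 h; metabolically active cells were measured by CellTiter-Glo luminescence. Final concentrations spanned up to 46 µM (MIPE, 11-point) or 0.59 nM-46 µM (NPC, 8-point) in primary screens, 11-point in follow-ups.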

[8] = Quantitative High-Throughput drug screen in 47 multiple myeloma cell lines against the NCATS MIPE library collection: ARD_JJKsccE7 cell viability assay (AID 1918929; note: potency is the fitted concentration of half-maximal effect;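 for viability: 100% = DMSO-only wells and 0% = media-only wells without cells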)
Outline: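 Viability readout: CellTiter-Glo luminescence following 5 min room-temperature incubation with reagent. Prior exposure: 48 h, 37C, humidified 5% CO2, 500 cells per well.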

[9] = molecular target: Cytochrome P450 2D6 (Homo sapiens) (UniProt P10635); assay: Cytochrome P450 family 2 subfamily D member 6 (CYP2D6) small molecule antagonists: luciferase biochemical (cell-free) qHTS assay (AID 1645840; active = well fitted curve in the direction sought with a large enough effect in the repeat runs; inconclusive = weak or mixed curves; inactive = no such curve, though single readings can be large; an effect the other way counts as inactive or inconclusive; note: nearly all actives have a fitted effect of over 55% in size; note: potency is the fitted concentration of half-maximal effect; for activity change, negative = inhibition: % is set by controls: 0 for no effect and ±100 for the full control effect)
Outline: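 P450-Glo luminescent screen: recombinant CYP2D6 enzyme–proluciferin substrate mix preincubated with compound 10 min at room temperature, then NADPH regeneration added for 1 h at room temperature. Detection reagent added for 20 min; luciferin light read as relative luminescence units.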

[10] = molecular target: Cytochrome P450 2C9 (Homo sapiens) (UniProt P11712); assay: Cytochrome P450 family 2 subfamily C member 9 (CYP2C9) small molecule antagonists: luciferase biochemical (cell-free) qHTS assay (AID 1645842; active = well fitted curve in the direction sought with a large enough effect in the repeat runs; inconclusive = weak or mixed curves; inactive = no such curve, though single readings can be large; an effect the other way counts as inactive or inconclusive; note: potency is the fitted concentration of half-maximal effect; nearly all actives have a fitted effect of over 55% in size)
Outline: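 Luminescence, after 20 min with luciferin detection reagent, reflected CYP2C9 turnover during a 1 h NADPH-driven reaction at 37C. Enzyme-substrate mix contained 0.4% bovine serum albumin and was preincubated with compound 10 min at room temperature.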

[11] = test system: Zika virus NS2B-NS3 protease (unlinked complex); assay: Primary screen GU Rhodamine qHTS for Zika virus inhibitors: Unlinked NS2B-NS3 protease assay (AID 1347159); note: % is set by controls: 0 for no effect and ±100 for the full control effect; nearly all actives have a fitted effect of over 60% in size
Outline: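 Noncovalent NS2B hydrophilic domain/NS3 protease complex (25 nM final) in 10 mM Tris-HCl pH 8.0, 0.01% Tween 20, preincubated 15 min with compounds (up to 114 microM), then 1.5 microM Rhodamine110 substrate. Fluorescence change over 15 min fitted to 4-parameter Hill.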

[12] = P-glycoprotein substrates identified in KB-3-1 adenocarcinoma cell line, qHTS therapeutic library screen (AID 1346986); details: KB-3-1 parental cells viability, CellTiter-Glo, 72 h;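 note: potency is the fitted concentration of half-maximal effect; potency is for cytotoxicity meaning loss of cell viability; nearly all actives have a fitted effect of over 60% in size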
Outline: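 Counter-screen: cherry-picked hits retested in the KB pair and in HEK-293 pcDNA/MDR-19 cells ± tariquidar. Primary screen used 72 h CellTiter-Glo viability in KB-3-1 and KB-8-5-11.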

[13] = Drug repurposing screens with cells derived from glioblastoma tumor samples (AID 1345199); details: GBM patient neurospheres viability, ATP luminescence, 48 h; Potency: tumour line A unless noted; activity, negative = cell killing: at 46 µM (top of the series), tumour line A unless noted; note: potency is the fitted concentration of half-maximal effect; nearly all actives have a fitted effect of over 40% in size
Outline: (§2)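 Four patient lines of CD133+ GBM neurospheres were screened at several concentrations; hits were retested in those lines plus three slower-growing GBM lines, using 48-hour treatment and ATP-based viability.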

[14] = qHTS of pediatric cancer cell lines to identify multiple opportunities for drug repurposing: Confirmatory screen for BT-37 cells (AID 1347117);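 note: potency is the fitted concentration of half-maximal effect; viability measured after 48 h of compound exposure; nearly all actives have a fitted effect of over 55% in size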
Outline: as §1

[15] = A High-Content qHTS Against Drug Library for the Identification of Small Molecules that Inhibit DYT1 Early Onset Primary Dystonia-Associated Cell Pathology (AID 1645839; calls by dose curve; note: potency is the fitted concentration of half-maximal effect)
Outline: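 In this high-content image screen, delE TorsinA mislocalization in inducible Flp-In 293 cells is scored as %pathology, with cell count serving as the counterscreen. Compound exposure lasts 48 h under tetracycline induction in reduced-serum medium.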

astro = assay: Drug repurposing screens with cells derived from glioblastoma tumor samples (AID 1345199); details: viability, ATP luminescence, 48 h; series mostly up to 45.9 µM; note: potency is the fitted concentration of half-maximal effect; nearly all actives have a fitted effect of over 40% in size
Outline: as §2

[16] = molecular target: Ubiquitin carboxyl-terminal hydrolase 1 (Homo sapiens) (UniProt O94782); assay: Inhibitors of USP1/UAF1: Pilot qHTS (AID 504865); note: potency is the fitted concentration of half-maximal effect; nearly all actives have a fitted effect of over 35% in size
Outline: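 Deubiquitinase activity followed as kinetic rhodamine fluorescence release from 150 nM Ub-Rho. 1 nM USP1/UAF1 with compound, after 15 min room-temperature preincubation, in HEPES pH 7.8 buffer containing TCEP, EDTA, BSA and Tween-20.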

[17] = qHTS Assay for Identification of Small Molecule Agonists for NFkB Signaling Pathway. (AID 624478)
Outline: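 Cells carrying an NFkB response element-driven beta-lactamase gene are co-treated with compound and 10 pM TNF alpha for 5 h, and reporter activity is then read as 460 and 530 nm fluorescence.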

## CC[C@@H]1C(=O)N(C)c2cnc(Nc3ccc(C(=O)NC4CCC(N5CCN(CC6CC6)CC5)CC4)cc3OC)nc2N1C(C)C (stereo partly specified)
[1]
  Potency: inconclusive: 36.9 µM [cytotoxic, single point]
[2]
  Potency: inconclusive: 36.9 µM [cytotoxic, single point]
[3]
  Potency: inconclusive: 16.1 µM [inhibitor, partial curve, poor fit]
[4]
  Potency: inactive
[5]
  Potency: inconclusive: 2.67 µM [activator, partial curve, poor fit]
[6]
  Potency: active: 0.059 µM

## C[C@@H](Oc1cc(-n2cnc3ccc(CN4CCN(C)CC4)cc32)sc1C(N)=O)c1ccccc1C(F)(F)F
[7]
  Potency: active: 4.14 µM
[8]
  Potency: active: 0.0264 µM

## Cc1cncc2cccc(S(=O)(=O)N3CCCN(C(=O)CN)C[C@@H]3C)c12
[9]
  Potency: inconclusive: 21.3 µM [inhibitor, partial curve, poor fit]
[10]
  Potency: active: 19 µM
[5]
  Potency: inactive
[6]
  Potency: inconclusive: 0.118 µM [rising, full curve, poor fit]

## COc1ccc(C(=O)CC2(O)C(=O)Nc3c(Cl)ccc(Cl)c32)cc1 (stereo unspecified)
[9]
  Potency: inconclusive: 26.8 µM [inhibitor, single point]
[5]
  Potency: inactive

## COc1c(OCCCN2CCOCC2)ccc2c3n(c(=NC(=O)c4cnc(N)nc4)nc12)CCN3
[7]
  Potency: inconclusive: 0.407 µM [cytotoxic, full curve, poor fit]
[11]
  activity change, negative = inhibition: inactive: 19.8% [at 19.1 µM]
[9]
  Potency: inactive
[8]
  Potency: active: 0.0144 µM

## CC(C)Nc1cc(-c2c[nH]c(C(=O)N[C@H](CO)c3cccc(Cl)c3)c2)c(Cl)cn1
[12]
  Potency: inconclusive: 29.1 µM [inhibitor, single point]

## CCCCCCCCCCCCCCCCCCOP(=O)([O-])OC1CC[N+](C)(C)CC1
[13]
  Potency: inconclusive: 4.47 µM [inhibitor, partial curve, poor fit]

## CC(C)c1onc(-c2c(Cl)cccc2Cl)c1COc1ccc(/C=C/c2cccc(C(=O)O)c2)c(Cl)c1
[3]
  Potency: inactive

## COc1cc2ncnc(Nc3ccc(F)c(Cl)c3)c2cc1OCCCN1CCOCC1
[12]
  Potency: inconclusive: 9.2 µM [inhibitor, partial curve]
[14]
  Potency: active: 13.5 µM
[15]
  Potency: inconclusive: 35.5 µM [inhibitor, single point]
astro
  Potency: active: 20 µM

## CN(C)CC(C)(C)CNc1nn2c(-c3ccccc3)nnc2cc1C1CCC1
[14]
  Potency: inconclusive: 4.14 µM [cytotoxic, full curve, poor fit]
[2]
  Potency: active: 18.5 µM
[7]
  Potency: inconclusive: 13.1 µM [cytotoxic, partial curve, poor fit]
[8]
  Potency: inactive

## O=C(CCCN1CCN(c2ccccn2)CC1)c1ccc(F)cc1
[16]
  Potency: inconclusive: 39.8 µM [inhibitor, partial curve, poor fit]
[13]
  Potency: active: 8.91 µM

## CCOC(CN1CCN(CC(C)C(=O)c2ccccc2)CC1)c1ccccc1 (stereo unspecified)
[11]
  Potency: inactive
[10]
  Potency: inconclusive: 19 µM [inhibitor, partial curve, poor fit]
[4]
  Potency: inconclusive: 9.47 µM [inhibitor, partial curve, poor fit]
[5]
  Potency: inconclusive: 16.8 µM [activator, partial curve, poor fit]
[13]
  Potency: active: 12.6 µM

## Cc1cnc(-c2cnc(NCCNc3ccc(C#N)cn3)nc2-c2ccc(Cl)cc2Cl)[nH]1
[2]
  Potency: inconclusive: 8.27 µM [cytotoxic, full curve]
[7]
  Potency: inconclusive: 1.31 µM [cytotoxic, partial curve, poor fit]
[5]
  Potency: inconclusive: 26.7 µM [activator, partial curve, poor fit]

## Nc1ccn([C@@H]2O[C@H](CO)[C@@H](O)C2(F)F)c(=O)n1
[15]
  Potency: inactive

## CCOC(=O)C1=C[C@@]2(CC)CCCN3CCc4c(n1c1ccccc41)[C@H]32
[16]
  Potency: inconclusive: 63.1 µM [inhibitor, partial curve, poor fit]

## Nc1cc(C(F)(F)F)c(-c2cc(N3CCOCC3)nc(N3CCOCC3)n2)cn1
[14]
  Potency: inconclusive: 7.37 µM [cytotoxic, partial curve]
[7]
  Potency: active: 5.85 µM
[11]
  Potency: inactive

## CCC1(Cc2ccc(N)cc2)CCC(=O)NC1=O (stereo unspecified)
[17]
  Potency: inconclusive: 67.9 µM [activator, single point]

## COC(=O)[C@]12CCC(C)(C)C[C@@H]1[C@@H]1C(=O)C=C3[C@@]4(C)C=C(C#N)C(=O)C(C)(C)[C@@H]4CC[C@@]3(C)[C@]1(C)CC2
[1]
  Potency: active: 3.69 µM

## COc1cc(O)c2c(c1)C1OC1C[C@H](O)[C@H](O)C(=O)C=CC[C@H](C)OC2=O (stereo partly specified)
[6]
  Potency: active: 3.32 µM

## C=C(C)C(=O)O[C@H]1C[C@@](C)(O)C2(O)CCC(C)(/C=C3/OC(=O)C(COC)=C31)O2 (stereo partly specified)
[4]
  Potency: inactive

## CO[C@@H]1[C@@H](OC)[C@H](C)[C@@](O)(CC(=O)O)O[C@H]1[C@H](C)[C@H]1O[C@@]2(CC[C@@](C)([C@H]3CC[C@@](C)([C@@H]4O[C@@H]([C@H]5O[C@](C)(O)[C@H](C)C[C@@H]5C)C[C@@H]4OC4C[C@H](OC)[C@@H](OC)[C@H](C)O4)O3)O2)C[C@H](O)[C@H]1C (stereo partly specified)
[15]
  Potency: inconclusive: 25.1 µM [inhibitor, partial curve, poor fit]
astro
  Potency: active: 1.58 µM

## CC(Oc1cc(-n2cnc3ccc(CN4CCN(C)CC4)cc32)sc1C(N)=O)c1ccccc1C(F)(F)F (stereo unspecified)
[11]
  Potency: inactive
